# Inconclusive means that the source gave no clear call. Such entries were picked first, then a sample of the others. Where a call stands in place of a potency, no number is given. Potencies beside an inconclusive call are fits to weak or partial responses and may not hold up. Activity calls are given as the source filed them. The call rests on the fitted dose curve.
# Test system: Chikungunya virus nsP2 protease
# Assay: Confirmatory qHTS for inhibitors of NSP2Pro chikungunya virus (CHIKV) (AID 1964105); further: nearly all actives have a fitted effect of over 75% in size
# Settings: CHIKV nsP2 protease enzymatic activity; series mostly up to 25.5 µM
# Potency means the concentration at half of the fitted maximal effect.
row,Structure (SMILES),Potency
1,COc1cc(C(=O)O)cc(OC)c1O,inactive
2,O=C1c2cccc(O)c2C(=O)c2c(O)cc(CO)cc21,inactive
3,COC(=O)/C=C/C12COC(C)(C)C1C(O)C(OC(C)=O)C1(C)C2CCC2(C)C(c3ccoc3)OC(=O)C3OC321 (centres undefined),inactive
4,COc1cc(CCO)ccc1O[C@@H]1O[C@H](CO)[C@@H](O)[C@H](O)[C@H]1O,"inconclusive: 3.49 µM [inhibitor, single point]"
5,CCOC(=O)c1cccc(CNc2ccc(N(C)C(=O)Nc3ccccc3)cc2)c1,inactive
6,C=C1C(=O)O[C@@H]2[C@H]1[C@H](O)C[C@]1(C)[C@@H](O)CC=C(C)[C@@H]21,inactive
7,O=C(NC1CCCCC1)O[C@@H]1CO[C@H]2[C@@H]1OC[C@@H]2n1nnnc1SCc1ccco1,active: 0.896 µM
8,CN1CCN(c2ncc3c(n2)CCN(Cc2ccc(Br)s2)C3)CC1,"inconclusive: 8.96 µM [inhibitor, partial curve]"
9,CC(C)c1ccc(S(=O)(=O)c2cnc(SCC(=O)Nc3ccc4c(c3)OCCO4)[nH]c2=O)cc1,inactive
10,C/C=C/C=C/C(=O)OC1CC/C=C/C(O)C(O)C(CCC)OC1=O (centres undefined),inactive
11,CC(=O)Nc1cccc2c1c(Sc1ccc(Cl)cc1)c(C)n2CC(=O)O,inactive
12,Oc1cccc(O)c1O,active: 1.79 µM
13,C=CCN1C[C@H](C(=O)N(CCCN(C)C)C(=O)NCC)C[C@@H]2c3cccc4[nH]cc(c34)C[C@H]21,inactive
14,Oc1ccc(OC2CCCCO2)cc1 (centres undefined),inactive
15,CO[C@]1(NC(=O)CSC(F)F)C(=O)N2C(C(=O)O)=C(CSc3nnnn3CCO)CO[C@H]21,"inconclusive: 8.96 µM [inhibitor, partial curve]"
16,C/C(=N\NC(=O)C(NC(=O)c1ccccc1)c1n[nH]c(=O)c2ccccc12)c1cccc(Br)c1 (centres undefined),inactive
17,O=C(CCN1CCN(C(=O)OCc2cc(Cl)cc(Cl)c2)CC1)c1ccc2[nH]c(=O)oc2c1,active: 6.34 µM
18,CN(C)c1cccc(-c2ncc(F)c(N3CCC(C(N)=O)CC3)n2)c1,inactive
19,C[C@@H]1C[C@@H](O)[C@@]23CO[C@]2(CO)C[C@@H](O)CC3[C@@]12CC(c1ccoc1)OC2=O (some centres undefined),inactive
20,Cc1c(Cc2ccc3ccccc3n2)c2cc(F)ccc2n1CC(=O)O,"inconclusive: 1.13 µM [inhibitor, partial curve, poor fit]"

# Some of the entries so far, bar-delimited:
row | Structure (SMILES) | Potency
16 | C/C(=N\NC(=O)C(NC(=O)c1ccccc1)c1n[nH]c(=O)c2ccccc12)c1cccc(Br)c1 (centres undefined) | inactive
17 | O=C(CCN1CCN(C(=O)OCc2cc(Cl)cc(Cl)c2)CC1)c1ccc2[nH]c(=O)oc2c1 | active: 6.34 µM

# Test system: Hepatitis C virus NS3/4A protease
# Assay: Selectivity profile for inhibitors of NSP2Pro chikungunya virus (CHIKV): NS34A-HCV Counterscreen (AID 1964106); further: nearly all actives have a fitted effect of over 55% in size
# Settings: HCV NS3/4A protease biochemical counterscreen; activity change, negative = inhibition: at 50.9 µM (top of the series) unless noted; series mostly up to 50.9 µM
Structure (SMILES),Potency,"activity change, negative = inhibition"
COC(=O)/C=C/C12COC(C)(C)C1C(O)C(OC(C)=O)C1(C)C2CCC2(C)C(c3ccoc3)OC(=O)C3OC321 (centres undefined),inactive,–
O=C(NCc1ccccc1)c1nc(S(=O)(=O)Cc2ccc(F)cc2)ncc1Cl,"inconclusive: 2.91 µM [inhibitor, partial curve]",–
C=Cc1c(C)c2cc3nc(cc4[nH]c(cc5nc(cc1[nH]2)C(C)=C5CCC(=O)O)c(CCC(=O)OC)c4C)[C@@]1(C)C3=CC=C(C(=O)OC)[C@H]1C(=O)OC,inactive,–
O=C(NC1CCCCC1)O[C@@H]1CO[C@H]2[C@@H]1OC[C@@H]2n1nnnc1SCc1ccco1,"inconclusive: 5.8 µM [inhibitor, partial curve]",–
C/C=C/c1ccc(O)c(OC)c1,"inconclusive: 14.6 µM [inhibitor, partial curve]",–
CN1CCN(c2ncc3c(n2)CCN(Cc2ccc(Br)s2)C3)CC1,active: 11.6 µM,–
CC(CO[C@@H]1O[C@H](COC(=O)/C=C/c2ccc(O)c(O)c2)[C@@H](O)[C@H](O)[C@H]1O)C1(O)COC(=O)C1 (some centres undefined),inactive,–
CC(C)c1cc2c(c(O)c1O)[C@@]13CCCC(C)(C)C1[C@@H](O)[C@@H]2OC3=O (some centres undefined),inactive,–
CC1(C)OC(=O)CC(O)C2(C)C1CC(=O)C1(C)C2C(O)CC2(C)C(c3ccoc3)OC(=O)C3OC321 (centres undefined),inactive,–
CCS(=O)(=O)c1ncc(Cl)c(C(=O)N(Cc2ccccc2)Cc2ccco2)n1,inactive,–
C/C=C/C=C/C(=O)OC1CC/C=C/C(O)C(O)C(CCC)OC1=O (centres undefined),inactive,–
COc1ccc(CNS(=O)(=O)c2cc(-c3[nH]ncc3C(=O)N3CCCC3)oc2C)cc1,"inconclusive: 18.3 µM [inhibitor, partial curve, poor fit]",–
CCCNC(=O)N[C@@H]1CCC[C@@H](C(=O)NCCOC)CC(=O)N(C)C1,"inconclusive: 10.6 µM [inhibitor, partial curve]",–
Cc1cccc(C(=O)Nc2ccc(N3CCN(c4ccc(F)cc4)CC3)c(C(=O)O)c2)c1,active: 4.11 µM,–
O=C(Nc1cnc(N2CCN(c3ccccc3)CC2)c(C(=O)O)c1)c1cccs1,active: 2.91 µM,–
NCCC(=O)N1CCC2(CC1)CN(C(=O)c1ccc(Cl)cc1)CCO2,active: 2.91 µM,–
Nc1ccccc1OC1=NS(=O)(=O)c2ccccc21,inactive,–
CNc1nc2c(s1)C(c1ccccc1F)CC(=O)N2 (centres undefined),"inconclusive: 14.6 µM [inhibitor, partial curve]",–
O=C(NC1CCCCC1)N[C@H]1CO[C@H]2[C@@H]1OC[C@@H]2n1nnnc1-c1ccc2c(c1)OCO2,"inconclusive: 2.59 µM [inhibitor, full curve]",–
CCCNC(=O)N[C@@H]1CCC[C@@H](C(=O)N(CC)CC)CC(=O)N(C)C1,"inconclusive: 14.9 µM [inhibitor, full curve]",–
O=C1NC(Cc2c[nH]c3ccccc23)C(=O)NC1Cc1c[nH]c2ccccc12 (centres undefined),inactive,–
Cc1cccc(C(=O)Nc2ccc(N3CCC(N4CCCCC4)CC3)c(C(=O)O)c2)c1,active: 2.59 µM,–
COC(=O)C1=CO[C@@H](O[C@@H]2O[C@H](CO)[C@@H](O)[C@H](O)[C@H]2O)[C@H]2[C@@H]1C=C[C@]21C=C([C@H](C)OC(=O)/C=C/c2ccc(O)cc2)C(=O)O1,–,inconclusive: -34% [inhibitor] [at 17.2 µM]
Oc1ccc(NCc2ccccc2OCc2ccccc2Cl)cc1,active: 18.3 µM,–
